# Source: PubChem BioAssay AID504784 (Drosophila RNAi Screening Center, 2011)
# Screen: 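Genome-wide knock-down for genes giving too much or too little stored lipid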 (primary screen)
# Cells: Drosophila Kc167 embryonic cells
# Reagent: long dsRNA against Drosophila genes, about 250 ng dsRNA per well
# Timing: 4 days
# Conditions: cells fed 400 µM oleic acid bound to BSA
# Read-out: 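Microscope images give a droplet-to-nucleus area ratio, taken as log and converted to a screen-wide B-score; higher values mean greater lipid storage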
# Scale: droplet/nuclear area B-score: higher = more stored lipid (overstorage)
# In all, the deposit lists about 17,000 reagents; this is a random part of those with a known target gene and a result. 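Each column is one replicate's B-score; the combined score over replicates was not deposited, so single values may mislead.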 The numbers tell different reagents against one gene apart. A plus sign joins genes that one reagent is predicted to hit. No sequences are given here.
target,reagent,"droplet/nuclear area B-score, replicate 1","droplet/nuclear area B-score, replicate 2","droplet/nuclear area B-score, replicate 3"
COX7C,1,1.58,-3.34,-1.22
Ir68b,1,1.22,0.304,
hay,1,0.362,-0.0401,
Agpat4,1,-1.23,-0.439,
Cpr92A,1,-1.51,1.41,
euc,1,-1.06,1.88,
CG42319,1,-1.13,-0.00602,
CG42319,2,-1.46,-0.00673,
CG42319,3,-0.0137,-0.0358,
AnxB11,1,0.288,1.04,-0.191
SkpF + CG5357 (retired record),1,1.31,0.0981,
CG32102,1,0.0522,-0.0506,
Oseg2,1,1.01,1.9,
CG14005,1,0.155,-1.55,
AP-2mu,1,0.539,1.21,
CG14818,1,-0.101,-0.961,
CG10527,1,0.343,-0.899,
IntS1,1,1.25,0.46,
CG5793,1,0.00677,0.967,
Saysd1,1,0.7,-0.109,
ste24c + CG30461,1,-0.0713,-0.511,
ste24c + CG30461,2,-0.828,0.814,
RpS27,1,2.67,1.81,
CG12708,1,-1.99,0.302,
CG1636,1,0.422,1.33,-1.55
Task7,1,-1.73,0.302,
Ald1,1,-0.524,-0.674,
CG7149,1,-0.774,-0.439,
Arp53D,1,-0.897,0.295,
Plzf,1,0.767,-0.834,
CG34370,1,0.674,-0.126,
CG34370,2,-2.36,1.85,
CG34370,3,-0.706,-0.397,
CG34370,4,-0.843,-1.28,

Reformatted: results already given.
| target | reagent | droplet/nuclear area B-score, replicate 1 | droplet/nuclear area B-score, replicate 2 | droplet/nuclear area B-score, replicate 3 |
| --- | --- | --- | --- | --- |
| ste24c + CG30461 | 2 | -0.828 | 0.814 | – |
| RpS27 | 1 | 2.67 | 1.81 | – |
| CG12708 | 1 | -1.99 | 0.302 | – |
| CG1636 | 1 | 0.422 | 1.33 | -1.55 |
